This is one part of the list. Repeats are few or missing, and single values can be far off.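 The apoptosis fraction was the count of cleaved-PARP antibody-stained nuclei relative to all DNA-stained nuclei, imaged in 1,536-well plates. Screening doses were set so most cells survived, and baseline and induced cleaved-PARP levels vary greatly across cell lines.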
Key:
Test in all cases: cleaved PARP positive nuclei fraction relative to DMSO control; melanoma cells; higher = more apoptosis
Conditions in all cases: library dose: low library concentration; 72 h
CBRC034 = system: CBRC034 (line from a melanoma biopsy)
COLO792 = system: COLO792
COLO800 = system: COLO800
COLO829 = system: COLO829
G361 = system: G361
IPC-298 = system: IPC-298
IST-MEL1 = system: IST-MEL1
LB2518-MEL = system: LB2518-MEL
LOXIMVI = system: LOXIMVI
MEL-HO = system: MEL-HO
MZ2-MEL = system: MZ2-MEL
MeWo = system: MeWo
RPMI7951 = system: RPMI7951
RVH-421 = system: RVH-421
SkMel28 = system: SkMel28
SkMel2 = system: SkMel2
SkMel30 = system: SkMel30
UACC62 = system: UACC62

SMILES	cleaved PARP positive nuclei fraction (CBRC034) [%]	cleaved PARP positive nuclei fraction (COLO792) [%]	cleaved PARP positive nuclei fraction (COLO800) [%]	cleaved PARP positive nuclei fraction (COLO829) [%]	cleaved PARP positive nuclei fraction (G361) [%]	cleaved PARP positive nuclei fraction (IPC-298) [%]	cleaved PARP positive nuclei fraction (IST-MEL1) [%]	cleaved PARP positive nuclei fraction (LB2518-MEL) [%]	cleaved PARP positive nuclei fraction (LOXIMVI) [%]	cleaved PARP positive nuclei fraction (MEL-HO) [%]	cleaved PARP positive nuclei fraction (MZ2-MEL) [%]	cleaved PARP positive nuclei fraction (MeWo) [%]	cleaved PARP positive nuclei fraction (RPMI7951) [%]	cleaved PARP positive nuclei fraction (RVH-421) [%]	cleaved PARP positive nuclei fraction (SkMel28) [%]	cleaved PARP positive nuclei fraction (SkMel2) [%]	cleaved PARP positive nuclei fraction (SkMel30) [%]	cleaved PARP positive nuclei fraction (UACC62) [%]
CC[C@]1(O)C[C@H]2CN(CCc3c([nH]c4ccccc34)[C@@](C(=O)OC)(c3cc4c(cc3OC)N(C=O)[C@H]3[C@@](O)(C(=O)OC)[C@H](OC(C)=O)[C@]5(CC)C=CCN6CC[C@]43[C@@H]65)C2)C1 [vincristine] + O=C(Nc1cc(C(F)(F)F)cc(C(F)(F)F)c1)c1cc(Cl)ccc1O [IMD0354] (first compound 0.0001 µM, partner dose 0.016 µM)	43.9	96.7	71.4	231	174	125	205	67.9	168	112	189	173	188	104	93	67.2	203	127
O=C(/C=C/c1cccnc1)NCCCCC1CCN(C(=O)c2ccccc2)CC1 + CN(c1ncccc1CNc1nc(Nc2ccc3c(c2)CC(=O)N3)ncc1C(F)(F)F)S(C)(=O)=O [PF562271] (first compound 0.01 µM, partner dose 0.08 µM)	2310	428	370	293	4850	138	104	134	207	692	884	152	78.8	194	129	1410	26.8	208
CCCCCCCCCCCCCCCCCCOP(=O)([O-])OC1CC[N+](C)(C)CC1 [Perifosine] + C=CCNC1=C2C[C@@H](C)C[C@H](OC)[C@H](O)[C@@H](C)/C=C(\C)[C@H](OC(N)=O)[C@@H](OC)/C=C\C=C(/C)C(=O)NC(=CC1=O)C2=O [Tanespimycin] (first compound 0.4 µM, partner dose 0.002 µM)	196	97.7	85.4	175	111	90.2	203	91.8	130	45.6	42	42.6	249	94.1	86	88.8	68.7	53.5
COc1cc([C@@H]2c3cc4c(cc3[C@@H](O[C@@H]3O[C@@H]5CO[C@@H](C)O[C@H]5[C@H](O)[C@H]3O)[C@H]3COC(=O)[C@H]23)OCO4)cc(OC)c1O [etoposide] + OCc1c[nH]c2ccccc12 [Indole-3-carbinol] (first compound 0.02 µM, partner dose 0.8 µM)	94.2	34.8	51.8	41.4	101	137	68.3	116	153	62.9	78.1	161	44	152	209	179	57.6	311
O=c1[nH]nc(Sc2ncc([N+](=O)[O-])s2)n1-c1ccc2c(c1)OCCO2 + NC1(c2ccc(-c3nc4ccn5c(=O)[nH]nc5c4cc3-c3ccccc3)cc2)CCC1 [MK2206] (first compound 0.2 µM, partner dose 0.4 µM)	36.2	191	54.4	49.4	169	87.7	163	100	190	65.5	97	117	134	40	268	99.7	54.6	196
Cc1cc(Nc2cc(N3CCN(C)CC3)nc(Sc3ccc(NC(=O)C4CC4)cc3)n2)n[nH]1 [Tozasertib] + COCC[n+]1c2c(n(Cc3cnccn3)c1C)C(=O)c1ccccc1C2=O [YM155] (first compound 0.006 µM, partner dose 0.0004 µM)	119	96.7	34.5	110	147	54.9	63.7	55.6	75.4	76.6	156	103	103	71.5	81.4	62.3	78.8	92.7
Cc1cc(Nc2cc(N3CCN(C)CC3)nc(Sc3ccc(NC(=O)C4CC4)cc3)n2)n[nH]1 [Tozasertib] + CNC(=O)c1cc(Oc2ccc(NC(=O)Nc3ccc(Cl)c(C(F)(F)F)c3)cc2)ccn1 [sorafenib] (first compound 0.006 µM, partner dose 0.4 µM)	147	91.2	113	131	69.3	163	135	104	175	80.9	158	132	55.1	74.3	90.1	57.9	55.1	124
CCCCCCCCCCCCCCCCCCOP(=O)([O-])OC1CC[N+](C)(C)CC1 [Perifosine] + C#Cc1cccc(Nc2ncnc3cc(OCCOC)c(OCCOC)cc23)c1 [erlotinib] (first compound 0.4 µM, partner dose 0.8 µM)	62.9	91.7	126	75.1	133	95	91.2	122	99.4	25	46.1	106	260	170	73.7	102	82.2	116
Cc1cc(Nc2cc(N3CCN(C)CC3)nc(Sc3ccc(NC(=O)C4CC4)cc3)n2)n[nH]1 [Tozasertib] + CCCCCCCCCCCCCCCCCCOP(=O)([O-])OC1CC[N+](C)(C)CC1 [Perifosine] (first compound 0.006 µM, partner dose 0.4 µM)	32.1	157	224	240	45.5	85.7	65.2	91.4	35.8	13.6	105	88.2	89.7	108	81.2	25.7	23.6	176
Cc1cc(Nc2cc(N3CCN(C)CC3)nc(Sc3ccc(NC(=O)C4CC4)cc3)n2)n[nH]1 [Tozasertib] + Cn1c(=O)n(-c2ccc(C(C)(C)C#N)cc2)c2c3cc(-c4cnc5ccccc5c4)ccc3ncc21 [NVP-BEZ235] (first compound 0.006 µM, partner dose 0.004 µM)	60.8	72.4	86.9	50	56.1	131	141	98.5	149	40.6	67.4	48.7	55.7	53.8	86.4	117	42.1	53
O=C(Nc1cc(C(F)(F)F)cc(C(F)(F)F)c1)c1cc(Cl)ccc1O + Cc1cn(-c2cc(NC(=O)c3ccc(C)c(Nc4nccc(-c5cccnc5)n4)c3)cc(C(F)(F)F)c2)cn1 [nilotinib] (first compound 0.016 µM, partner dose 0.2 µM)	67.4	236	176	169	141	91.7	65.8	299	30.3	103	99.3	22.8	106	91.3	140	88.7	95.3	151
Cc1ccc(Nc2nccc(N(C)c3ccc4c(C)n(C)nc4c3)n2)cc1S(N)(=O)=O [Pazopanib] + Clc1ccc(Nc2nnc(Cc3ccncc3)c3ccccc23)cc1 [vatalanib] (first compound 0.4 µM, partner dose 2 µM)	66.9	107	79.4	68.1	125	117	31.9	101	33.3	133	121	95.4	110	132	74.7	77.5	81.2	239
CCCCCCCCCCCCCCCCCCOP(=O)([O-])OC1CC[N+](C)(C)CC1 [Perifosine] + Nc1cccc2c1CN(C1CCC(=O)NC1=O)C2=O [lenalidomide] (first compound 0.4 µM, partner dose 1 µM)	30.8	95	81.2	69.7	111	186	174	109	105	75.9	90.1	134	104	187	83.3	91.3	17.3	60.4
CC[C@]1(O)C[C@H]2CN(CCc3c([nH]c4ccccc34)[C@@](C(=O)OC)(c3cc4c(cc3OC)N(C=O)[C@H]3[C@@](O)(C(=O)OC)[C@H](OC(C)=O)[C@]5(CC)C=CCN6CC[C@]43[C@@H]65)C2)C1 [vincristine] + COc1ccc(C2=N[C@@H](c3ccc(Cl)cc3)[C@@H](c3ccc(Cl)cc3)N2C(=O)N2CCNC(=O)C2)c(OC(C)C)c1 [Nutlin-3] (first compound 0.0001 µM, partner dose 0.1 µM)	188	85	183	100	199	43.1	72.3	58.6	333	155	93.6	219	119	133	113	146	143	74.9
CCCCCCCCCCCCCCCCCCOP(=O)([O-])OC1CC[N+](C)(C)CC1 [Perifosine] + C[C@]1(O)C[C@@H](c2nc(-c3ccc4ccc(-c5ccccc5)nc4c3)c3c(N)nccn32)C1 [OSI906] (first compound 0.4 µM, partner dose 0.4 µM)	34.3	58.5	146	92.8	163	133	338	198	174	65.2	151	122	333	318	119	284	65.4	215
CCCCCCCCCCCCCCCCCCOP(=O)([O-])OC1CC[N+](C)(C)CC1 [Perifosine] + NC1(c2ccc(-c3nc4ccn5c(=O)[nH]nc5c4cc3-c3ccccc3)cc2)CCC1 [MK2206] (first compound 0.4 µM, partner dose 0.4 µM)	49	119	117	68	111	90.5	130	157	201	182	142	87.2	56.8	30.1	115	56.8	49.5	92.9

Taken from above.
cleaved PARP positive nuclei fraction (COLO800) [%], O=C(Nc1cc(C(F)(F)F)cc(C(F)(F)F)c1)c1cc(Cl)ccc1O + Cc1cn(-c2cc(NC(=O)c3ccc(C)c(Nc4nccc(-c5cccnc5)n4)c3)cc(C(F)(F)F)c2)cn1 [nilotinib] (first compound 0.016 µM, partner dose 0.2 µM) is entered as 176
cleaved PARP positive nuclei fraction (RVH-421) [%], COc1cc([C@@H]2c3cc4c(cc3[C@@H](O[C@@H]3O[C@@H]5CO[C@@H](C)O[C@H]5[C@H](O)[C@H]3O)[C@H]3COC(=O)[C@H]23)OCO4)cc(OC)c1O [etoposide] + OCc1c[nH]c2ccccc12 [Indole-3-carbinol] (first compound 0.02 µM, partner dose 0.8 µM) is entered as 152
